Laboratory results taken from PubChem BioAssay AID1656 (Sanford-Burnham Center for Chemical Genomics, 2009).
This is one part of the list.

Test: inhibitors of hepatocyte lipid droplet formation, primary screen, imaging, high-throughput imaging, BODIPY stain (AID 1656);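 note: cells counted across two imaged fields per well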
Conditions: AML12 mouse hepatocytes, oleate lipid droplets, measured here: cell count, cytotoxicity flag, at 6.5 µM

SMILES | cell count [cells]
CCc1ccc(OP(C)(=O)N2CCN(c3ccc([N+](=O)[O-])cc3)CC2)cc1 (stereo unspecified) | 715
Cc1cc(C)cc(OP(C)(=O)Nc2ccc(SC(F)(F)F)cc2)c1 (stereo unspecified) | 688
O=C(Nc1ccncc1[N+](=O)[O-])c1ccc([N+](=O)[O-])cc1[N+](=O)[O-] | 832
COc1ccc(N/C(=N/P(=O)(N2CCOCC2)N2CCOCC2)N2CCOCC2)cc1 | 704
Cc1c2c(nc3ccccc13)SC(C(Cl)Cl)C2 (stereo unspecified) | 572
Cc1cc(=O)[nH]c(N[N+](=O)[O-])n1 | 648
CCN(CC)CCCOC(=O)C(O)(c1ccccc1)c1ccccc1 | 733
COc1ccc2nc(NP(=O)(c3ccccc3)c3ccccc3)sc2c1 | 709
COc1cc(I)ccc1[As](=O)(O)O | 647
CCOC(=O)c1ccc(NP(C)(=O)Oc2ccccc2)cc1 (stereo unspecified) | 732
ClCCSc1nnc(-c2cccnc2)o1 | 745
Cc1ccc(NP(C)(=O)Oc2ccccc2)c(C)c1 (stereo unspecified) | 772
CC(C)c1ccc(OP(=O)(Nc2ccccn2)Oc2ccccc2F)cc1 (stereo unspecified) | 739
COc1ccccc1OP(C)(=O)Nc1cc(Cl)ccc1C (stereo unspecified) | 785
CC(C)NC(=O)NP(=O)(Oc1ccccc1)Oc1ccccc1 | 703
COc1ccc(OP(C)(=O)Nc2cccc(F)c2)cc1 (stereo unspecified) | 751
O=[N+]([O-])c1cc([N+](=O)[O-])c(-c2ccn[nH]2)s1 | 701
Cc1cc(C)cc(OP(C)(N)=O)c1 (stereo unspecified) | 681
O=[As](O)(c1ccc(O)cc1)c1ccccc1O | 707
C[As](=O)(O)c1cccc(C(=O)O)c1 | 745
Cc1ccc(OP(=O)(Nc2ccc([N+](=O)[O-])cn2)Oc2ccc(C)cc2)cc1 | 743
CC(C)(C)c1ccc(OP(C)(=O)Nc2ccc(SC(F)(F)F)cc2)cc1 (stereo unspecified) | 667
Cc1cccc(C)c1OP(C)(N)=O (stereo unspecified) | 727
O=[N+]([O-])c1ccc2c(c1)C=Nc1ccccc1O2 | 714
Cc1ccc2nc3c(c(C)c2c1)CC(C(Cl)Cl)S3 (stereo unspecified) | 652
NC(=O)Nc1ccc([As](=O)(O)O)cc1 | 691

SMILES | cell count [cells]
CN(C(=O)Cc1ccccc1)[C@@H]1CC[C@]2(CCCO2)C[C@H]1N1CCCC1 | 730
O=[N+]([O-])c1ccc2c(c1)nnn2O | 751
CC1=NCCc2c1[nH]c1ccccc21.O=[N+]([O-])c1cc([N+](=O)[O-])c(O)c([N+](=O)[O-])c1 | 523
CCOP1(=S)c2c(C)nn(CCC#N)c2N=C(c2ccccc2F)N1C (stereo unspecified) | 697
O=C(O)c1cccc(Nc2c([N+](=O)[O-])cc([N+](=O)[O-])cc2[N+](=O)[O-])c1 | 690
O=P(Nc1nccs1)(Oc1ccccc1)Oc1ccccc1 | 780
O=P(Nc1nccs1)(c1ccccc1)c1nc2ccccc2s1 (stereo unspecified) | 617
CS(=O)(=O)c1cc([N+](=O)[O-])c2no[n+]([O-])c2c1 | 703
Nc1ccccc1[As](=O)(O)c1ccccc1 | 653
O=C(O)COc1ccc([As](=O)(O)O)cc1[N+](=O)[O-] | 826
Cc1cc(C)cc(OP(C)(=O)Nc2ccccn2)c1 (stereo unspecified) | 813
CP(=O)(Nc1cccc(Br)c1)Oc1ccccc1 (stereo unspecified) | 714
Cc1ccc(NCCc2c([N+](=O)[O-])cc([N+](=O)[O-])cc2[N+](=O)[O-])cc1 | 543
Nc1cccc2c([As](=O)(O)O)cccc12 | 825
Cc1ccc(C)c(NP(C)(=O)Oc2ccccc2)c1 (stereo unspecified) | 751
CCCOP(=S)(Nc1nc(N)cc(=O)[nH]1)OCCC | 615
CCOP(=O)(Nc1cccc2ccccc12)OCC | 750
O=C(OC1CN2CCC1CC2)c1ccc(Cl)cc1 (stereo unspecified) | 716
O=[As](O)(O)c1cccnc1 | 605
COc1cc(C(=O)NCC2(N3CCOCC3)CCCCC2)cc(Cl)c1OC(C)C | 652
COc1ccccc1OP(C)(=O)Nc1cccc(Br)c1 (stereo unspecified) | 685
CS(=O)(=O)c1ccc(Cl)c(NC(=O)COC(=O)C(O)(c2ccccc2)c2ccccc2)c1 | 712
Cc1cccc(OCC(=O)OC2CN3CCC2CC3)c1 (stereo unspecified) | 714
O=[As](O)(c1cccc(O)c1)c1cccc(O)c1 | 728
Cc1cc(C)cc(OP(C)(=O)Nc2ccc(C)cc2C)c1 (stereo unspecified) | 769
CCOC(=O)c1ccc(NP(C)(=O)Oc2cc(C)cc(C)c2)cc1 (stereo unspecified) | 670

SMILES | cell count [cells]
CC(C)/C=N\N=C(\N)N[N+](=O)[O-] | 689
CN(C(=O)Cc1ccc(Cl)c(Cl)c1)[C@@H]1CCCC[C@H]1N1CCCC1 | 743
O=[As](O)(c1ccccc1Br)c1ccccc1Br | 736
O=P1(Nc2ccccn2)COc2ccccc2OC1 | 711
CCC1=CC2Cc3nc4ccc(Cl)cc4c(N)c3C(C1)C2 (stereo unspecified) | 716
O=[N+]([O-])c1cc([N+](=O)[O-])c(-n2nnc3ccccc32)c([N+](=O)[O-])c1 | 686
CCOP(=O)(NC(=NC(C)c1ccccc1)NC(C)c1ccccc1)OCC (stereo unspecified) | 825
CCOP(=O)(Nc1ccc(C)cn1)OCC | 681
CC(C)(C)C(=O)NC(Sc1ncccn1)C(Cl)(Cl)Cl (stereo unspecified) | 738
CN1CCCCC1COC(=O)C1(O)c2ccccc2CCc2ccccc21 (stereo unspecified) | 662
O=P1(Nc2ncccn2)COc2ccccc2OC1 | 752
CCCOc1ccc(NP(C)(=O)Oc2ccc(Cl)cc2)cc1 (stereo unspecified) | 682
CP(=O)(Nc1ccc(SC(F)(F)F)cc1)Oc1ccccc1 (stereo unspecified) | 744
Nc1cccc([As](=O)(O)c2ccccc2)c1 | 713
Cc1ccc(OCC(=O)OC2CN3CCC2CC3)cc1 (stereo unspecified) | 655
O=[As](O)(c1cccs1)c1cccs1 | 687
O=P1(Nc2ccc(Br)cn2)COc2ccccc2OC1 | 769
Cc1nn(-c2ccccc2)c2c1P(=O)(N1CCOCC1)N(C)C(c1ccccc1)=N2 (stereo unspecified) | 708
CC1CCC(C(C)C)C(OP(=O)(Nc2ccccn2)c2ccccc2)C1 (stereo unspecified) | 690
COc1cc(C2NCCC3(OCCO3)C2(C)C)cc(OC)c1OC.O=[N+]([O-])c1cc([N+](=O)[O-])c(O)c([N+](=O)[O-])c1 (stereo unspecified) | 617
CN(C)C1(CNC(=O)c2ccc(S(C)(=O)=O)cc2)CCCCC1 | 733
O=[N+]([O-])c1cc([N+](=O)[O-])c(Nc2nnnn2CCO)c([N+](=O)[O-])c1 | 717
CCOC(=O)C(CC)C1=NC(C)(C)Cc2ccccc21.O=[N+]([O-])c1cc([N+](=O)[O-])c(O)c([N+](=O)[O-])c1 (stereo unspecified) | 747
O=C(/C=C/c1ccccc1)OC1CN2CCC1CC2 (stereo unspecified) | 690
